# According to the supplement of paper PMC6690932:
# Values joined by “and” are separate entries in the source; they are usually repeats but may differ in a detail not shown here. Identical values can stand only once. Counter-ions that a name gives are not always drawn. Some of the results follow. Many values rest on one well or one pass, so single values are uncertain.
# Test system: HeLa
# Experiment: lysosomal-METRIQ red/green fluorescence ratio relative to DMSO (ratio to DMSO); higher = higher lysosomal activity / lysosomal biogenesis
# Conditions: 10 µM; 12 h
row,Structure (SMILES),lysosomal-METRIQ red/green fluorescence ratio
1,C/C=C(/C)C(=O)O[C@H]1C(C)=C2[C@H]([C@@H]1OC(=O)CCCCCCC)[C@@](C)(OC(C)=O)C[C@H](OC(=O)CCC)[C@@]1(O)[C@H]2OC(=O)[C@@]1(C)O [Thapsigargin],1.4
2,O=C1C2CCN(CC2)C1(CO)CO,1
3,"N=C(N)NN [Aminoguanidine, HCl]",1
4,CO[C@@H]1C[C@@H](C[C@H]2CC[C@H](C)[C@H]([C@@H](C)C(=O)O)O2)O[C@]2(O[C@](C)([C@H]3CC[C@@](C)([C@@H]4O[C@@H]([C@H]5O[C@@](O)(CO)[C@H](C)C[C@@H]5C)C[C@@H]4C)O3)C[C@H]2C)[C@@H]1C [Nigericin],1.28
5,C[C@H]1CCC/C=C/[C@@H]2C[C@H](O)C[C@H]2[C@H](O)/C=C/C(=O)O1 [brefeldin A],0.364
6,N.N.[Cl][Pt][Cl] [Cisplatin],0.968
7,O=C1Nc2ccccc2C2(CCN(CCc3ccc(C(F)(F)F)cc3)CC2)O1,0.88
8,C#CCN(C)C(C)Cc1ccccc1 (stereo unspecified) [Deprenyl],1.13
9,CC[C@@]1([C@@H]2O[C@@H]([C@H]3O[C@@](O)(CO)[C@H](C)C[C@@H]3C)C[C@@H]2C)CC[C@H]([C@]2(C)CC[C@]3(C[C@H](O)[C@@H](C)[C@@H]([C@@H](C)[C@@H](OC)[C@H](C)C(=O)O)O3)O2)O1 [Monensin],0.88
10,CC[C@H]1/C=C/C=C/C[C@@H](C)[C@H](O)[C@@](C)(O)C(=O)[C@@H](C)[C@H](O)[C@@H](C)C(=O)[C@@H](C)[C@H](O)[C@@H](C)/C=C/C(=O)O[C@@H]2[C@H](C)[C@H](CC1)O[C@]1(CC[C@H](C)[C@H](C[C@@H](C)O)O1)[C@H]2C [Oligomycin],0.84
11,CO/C1=C\C(C)=C\[C@@H](C)[C@@H](O)[C@@H](C)C/C(C)=C/C=C/[C@H](OC)[C@@H]([C@@H](C)[C@@H](O)[C@H](C)[C@@]2(O)C[C@@H](O)[C@H](C)[C@@H](C(C)C)O2)OC1=O [Bafilomycin A1],0.44
12,CC1=C2C[C@H]3[C@@H](CC=C4C[C@@H](O)CC[C@@]43C)[C@@H]2CC[C@]12O[C@@H]1C[C@H](C)CN[C@H]1[C@H]2C [cyclopamine],1.18
13,COc1ccc2c3c([nH]c2c1)[C@H](C=C(C)C)N1C(=O)[C@@H]2CCCN2C(=O)[C@@H]1C3 [Fumitremorgin C],1.12
14,O[C@H]1[C@H]2[C@H](O)CCCN2C[C@H]1O [Swainsonine],1.04
15,COC(=O)C1(OC)CC2OC1(C)n1c3ccccc3c3c4c(c5c6ccccc6n2c5c31)C(=O)N(C)C4 (stereo unspecified),1.04 and 1.12
16,N[C@@H]1C[C@H]1c1cc(F)cc(F)c1OCc1ccccc1 [S2101 (LSD1 inhibitor II)],0.773
17,C[C@@]12C(=O)OC(=O)[C@]1(C)[C@H]1CC[C@@H]2O1 [Cantharidin],0.867
18,Cc1sc2c(c1C)C(c1ccc(Cl)cc1)=N[C@@H](CC(=O)OC(C)(C)C)c1nnc(C)n1-2,0.955
19,O=C(O)c1nn(Cc2ccc(Cl)cc2Cl)c2ccccc12 [Lonidamine],1.04
20,C=C1[C@@H](C)[C@H]2[C@H](Cc3ccccc3)NC(=O)[C@]23[C@H](OC(C)=O)/C=C/[C@@](C)(O)C(=O)[C@@H](C)C/C=C/[C@H]3[C@@H]1O [Cytochalasin D],0.871
21,CC(C)[C@@H]1NC(=O)[C@H](C)OC(=O)[C@@H](C(C)C)NC(=O)[C@@H](C(C)C)OC(=O)[C@H](C(C)C)NC(=O)[C@H](C)OC(=O)[C@@H](C(C)C)NC(=O)[C@@H](C(C)C)OC(=O)[C@H](C(C)C)NC(=O)[C@H](C)OC(=O)[C@@H](C(C)C)NC(=O)[C@@H](C(C)C)OC1=O [Valinomycin],1.24
